Results are given in words; binding and its absence hold for the method and conditions named. A result given as binding can be weak or reduced; the word gives no strength. Sequences can lack the tags named with a protein.

Protein sequences, listed by entry. Tags and fused reporters are not part of them. Lines headed by an entry give the natural chain unless they say otherwise; changes in a name come on top.
UniProt Q8NQL2: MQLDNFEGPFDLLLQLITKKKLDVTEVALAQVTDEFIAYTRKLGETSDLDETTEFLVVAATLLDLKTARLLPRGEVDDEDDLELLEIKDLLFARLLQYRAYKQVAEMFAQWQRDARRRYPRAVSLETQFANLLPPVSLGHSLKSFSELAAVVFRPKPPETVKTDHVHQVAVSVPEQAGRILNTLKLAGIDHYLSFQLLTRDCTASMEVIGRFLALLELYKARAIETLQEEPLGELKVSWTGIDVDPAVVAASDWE

For this assay, the target named is T1, SMC, bacterial two-hybrid fusion (Corynebacterium glutamicum) (UniProt Q8NNW5).
T1 sequence: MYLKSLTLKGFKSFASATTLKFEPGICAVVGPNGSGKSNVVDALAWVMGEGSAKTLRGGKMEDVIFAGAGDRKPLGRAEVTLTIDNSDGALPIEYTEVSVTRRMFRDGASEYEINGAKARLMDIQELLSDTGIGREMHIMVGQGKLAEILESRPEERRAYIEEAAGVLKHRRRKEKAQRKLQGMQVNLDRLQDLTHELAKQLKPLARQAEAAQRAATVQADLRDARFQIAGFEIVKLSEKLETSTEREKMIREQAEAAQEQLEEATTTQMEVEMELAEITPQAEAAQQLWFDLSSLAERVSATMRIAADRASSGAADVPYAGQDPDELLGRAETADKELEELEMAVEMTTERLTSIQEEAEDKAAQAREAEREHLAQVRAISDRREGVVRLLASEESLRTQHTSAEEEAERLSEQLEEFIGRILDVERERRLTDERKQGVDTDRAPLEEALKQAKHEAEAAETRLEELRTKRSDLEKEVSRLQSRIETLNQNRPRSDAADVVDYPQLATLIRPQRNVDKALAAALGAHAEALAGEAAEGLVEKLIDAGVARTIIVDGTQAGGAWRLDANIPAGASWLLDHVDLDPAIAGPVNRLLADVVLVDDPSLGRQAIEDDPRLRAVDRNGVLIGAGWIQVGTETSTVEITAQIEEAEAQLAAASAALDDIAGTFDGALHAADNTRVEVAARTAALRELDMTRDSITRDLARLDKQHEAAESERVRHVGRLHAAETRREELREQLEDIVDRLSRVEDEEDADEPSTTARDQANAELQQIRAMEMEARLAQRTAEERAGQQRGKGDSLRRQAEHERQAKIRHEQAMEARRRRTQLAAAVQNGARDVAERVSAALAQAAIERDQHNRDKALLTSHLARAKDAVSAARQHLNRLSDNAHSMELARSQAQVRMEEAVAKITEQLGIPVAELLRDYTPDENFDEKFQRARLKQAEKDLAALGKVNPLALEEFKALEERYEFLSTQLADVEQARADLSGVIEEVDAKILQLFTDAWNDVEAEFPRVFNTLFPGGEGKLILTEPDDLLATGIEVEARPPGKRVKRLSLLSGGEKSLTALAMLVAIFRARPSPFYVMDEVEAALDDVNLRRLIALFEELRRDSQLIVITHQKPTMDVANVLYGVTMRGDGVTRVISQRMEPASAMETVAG
The assay is described as follows: two-hybrid; bacterial two-hybrid with adenylate cyclase fragments T18 and T25 in E. coli BTH101, 30 °C; blue-white screening and β-galactosidase assays; all C- and N-terminal combinations of hybrid proteins.

For “ScpA, bacterial two-hybrid fusion (from UniProt Q8NQL2)”, the binding entry is “binds”.
In the case of “ScpB, bacterial two-hybrid fusion (Corynebacterium glutamicum)”, the binding result was “binds”.
Then “ParB, bacterial two-hybrid fusion (Corynebacterium glutamicum)”, with “no binding”.
